Test results taken from the supplement of paper PMC3334620.
In all, about 33,000 sequences were measured (“E-score (-0.5 to 0.5)”: median about -0.016, highest 2% from about 0.3 on). This is one part of the list.

biological target: T1, Yer184c (UniProt P39961); test: PBM E-score (8-mer binding enrichment) (E-score (-0.5 to 0.5)); higher = stronger / more preferred TF binding; conditions: protein concentration: 100 nM; construct: GST-full length
T1 sequence: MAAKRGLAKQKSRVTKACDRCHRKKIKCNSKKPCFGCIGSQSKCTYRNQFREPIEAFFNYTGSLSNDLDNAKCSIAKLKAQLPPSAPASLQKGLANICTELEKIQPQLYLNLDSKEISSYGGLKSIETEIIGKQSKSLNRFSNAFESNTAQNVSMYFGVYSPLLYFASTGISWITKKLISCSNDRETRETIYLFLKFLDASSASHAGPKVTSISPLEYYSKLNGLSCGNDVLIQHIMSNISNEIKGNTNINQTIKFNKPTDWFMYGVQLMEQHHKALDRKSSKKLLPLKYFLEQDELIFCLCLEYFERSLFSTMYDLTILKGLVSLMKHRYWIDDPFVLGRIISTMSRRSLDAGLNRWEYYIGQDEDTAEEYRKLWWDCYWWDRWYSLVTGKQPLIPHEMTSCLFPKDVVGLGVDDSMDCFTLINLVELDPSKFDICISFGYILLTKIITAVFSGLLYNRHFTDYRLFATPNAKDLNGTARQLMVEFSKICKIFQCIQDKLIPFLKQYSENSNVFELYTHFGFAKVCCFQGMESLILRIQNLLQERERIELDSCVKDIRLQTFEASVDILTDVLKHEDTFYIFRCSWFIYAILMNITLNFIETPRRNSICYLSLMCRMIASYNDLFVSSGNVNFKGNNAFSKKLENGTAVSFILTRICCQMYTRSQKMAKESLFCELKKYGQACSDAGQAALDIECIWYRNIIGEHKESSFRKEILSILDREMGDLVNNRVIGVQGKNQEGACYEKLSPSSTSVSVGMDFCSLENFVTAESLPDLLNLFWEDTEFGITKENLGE
Procedure, shortened: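 Universal all-10-mer Agilent arrays, double-stranded by primer extension on fresh or once-stripped slides, were probed with about 100-200 nM GST-tagged yeast transcription factors made by PURExpress. Fluorescent anti-GST detected bound protein, and masliner normalised the scans. E-scores from the Universal PBM Analysis Suite were given to each ungapped eight-base word pooled with its reverse complement.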

Row | Sequence | PBM E-score
1 | ACTAAAAC | 0.0746
2 | AGCTGTCC | -0.212
3 | TACGCCTA | -0.0765
4 | AGAGTTTG | 0.0668
5 | GGGTGTCA | -0.0684
6 | CCCCGACC | -0.237
7 | AATAATGC | 0.136
8 | CGGCAACA | 0.271
9 | CGTCACCA | -0.164
10 | AAACCTGC | -0.0365
11 | GCTTGCAA | 0.0495
12 | TAATCTCA | -0.0259
13 | ACGGGCTA | -0.205
14 | CTTCTGAA | 0.0142
15 | ACATGGCG | -0.266
16 | AAGTTAAA | -0.00852
17 | ATAGGTAG | -0.245
18 | CCGCGACG | 0.0786
19 | AAAAAGAG | -0.0342
20 | CGGGACGA | 0.111
21 | ACTTAAGC | 0.0177
22 | CCAGGGCC | -0.289

Row | Sequence | PBM E-score
23 | GGAATGGA | -0.0367
24 | GCGAATAA | 0.0477
25 | AGACCGAG | 0.157
26 | AAGTCCAG | -0.0117
27 | ACGATAAG | -0.018
28 | AATTCTAC | 0.174
29 | CTGGGAAG | -0.145
30 | AAAGGGCC | -0.231
31 | CAAATGTC | -0.0295
32 | TCATTTCA | 0.103
33 | CTGAGAAC | 0.0807
34 | ATTGGCGC | 0.0309
35 | GGGGTATA | -0.199
36 | GGACAAAA | 0.297
37 | CGGCATTC | 0.224
38 | AGCCCACA | -0.263
39 | ACATGGAC | -0.128
40 | ATGCACCC | -0.147
41 | CACTCGAC | -0.0695
42 | CCAAAACC | 0.0957
43 | GTCAACAA | -0.0763
44 | AGCCAGCC | -0.152

Row | Sequence | PBM E-score
45 | AAATAGTA | 0.18
46 | ACTGTCTG | -0.0988
47 | CCGTACTC | -0.115
48 | GGTCACCA | -0.188
49 | CTATCGAG | -0.0801
50 | AGTTATCG | 0.227
51 | CGTGGGGC | -0.123
52 | AAGCTAAT | 0.162
53 | ACCAACAT | 0.133
54 | CTGTGTAC | 0.179
55 | GCCGCCTA | -0.265
56 | CAGGTGAA | 0.061
57 | CAGATCCA | -0.0622
58 | CCAGCGAA | -0.041
59 | ATGGGTAG | -0.166
60 | CATAAGAC | -0.112
61 | TGACCGAA | 0.228
62 | ACTGTAAA | 0.22
63 | AAACCAAA | 0.258
64 | GCCGACAC | 0.144
65 | GAGGATTA | 0.0226
66 | GAACTTGC | 0.0842

Row | Sequence | PBM E-score
67 | CTTCGATA | 0.139
68 | ACCCGGAG | 0.348
69 | GCAGCACA | 0.0134
70 | GGCAGTAA | -0.0215
71 | AGTGTGCC | -0.00263
72 | CGGGGGTA | -0.0376
73 | CCCGAAAA | 0.263
74 | AATGCTGT | -0.0607
75 | AGGCTAAT | -0.0256
76 | CACGCTTA | -0.0305
77 | CATGTACC | -0.257
78 | GCCTGCCA | -0.0615
79 | ACTGACCG | -0.0172
80 | CATCTTGA | 0.0615
81 | ATCTTGAG | -0.0655
82 | GGGACGAA | 0.0852
83 | CAGGGCGA | -0.0862
84 | GGAGATAC | 0.124
85 | CGTGACAA | 0.0462
86 | CTTCCCGA | 0.148
87 | AACGCATT | 0.157
88 | AGTCATCA | -0.247

Row | Sequence | PBM E-score
89 | ATCGACTC | -0.2
90 | CGTCGCAG | -0.00917
91 | AGCCCAAC | -0.27
92 | GGACATTA | 0.0863
93 | GGATGGTA | 0.108
94 | ACGTAACC | -0.0261
95 | CAATGATG | -0.025
96 | CCCGGTGA | 0.11
97 | TGATAAAA | 0.178
98 | GATTTCAA | 0.169
99 | ATAGGACG | -0.238
100 | AGCCACCT | -0.348
101 | GGCTACCA | -0.0791
102 | ATGATTAG | 0.101
103 | CGTTACGA | 0.156
104 | GGTTCTGA | 0.0515
105 | GCATGCGA | 0.239
106 | GCCGTGAC | 0.181
107 | CCCCTCCC | -0.192
108 | TAAAAGTA | 0.161
109 | AATCAAGA | -0.00396
110 | ATGGCCCA | 0.0557

Looked up above:
PBM E-score with ATGGCCCA is entered as 0.0557
PBM E-score with AATCAAGA is entered as -0.00396
PBM E-score with GGCTACCA is entered as -0.0791
PBM E-score with TGATAAAA is entered as 0.178
PBM E-score with GCCGTGAC is entered as 0.181
